Every entry is a combination with RKI-983 at 400 nM: C[C@@H](N)c1ccc(C(=O)Nc2ccnc3[nH]ccc23)cc1

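Human melanoma cell lines in 1,536-well plates were treated with two drugs together for 72 h, then fixed, stained and imaged. Each value is the count of nuclei relative to DMSO-treated wells, in %, so that 100 equals the control. Concentrations were fixed for each drug; these are the lower of two levels, a fifth of the higher. The file gives one value for each pair and line, without errors, so small differences may be noise.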
An unselected part of the screen is shown.

Partner: C=CCNC1=C2C[C@@H](C)C[C@H](OC)[C@H](O)[C@@H](C)/C=C(\C)[C@H](OC(N)=O)[C@@H](OC)/C=C\C=C(/C)C(=O)NC(=CC1=O)C2=O at 2 nM
LOX IMVI: 93.3
IST-MEL1: 104
C32: 83.1
MEL-HO: 96.7
IPC-298: 105
A375: 92.4
A2058: 73.8
COLO 792: 116
COLO 800: 120
COLO 829: 86.3
G-361: 109
A101D: 96.3
LB2518-MEL: 124

Partner: Nc1ccn([C@@H]2O[C@H](CO)[C@@H](O)C2(F)F)c(=O)n1 at 0.4 nM
LOX IMVI: 72.1
IST-MEL1: 75.2
C32: 71.3
MEL-HO: 69.8
IPC-298: 95.7
A375: 92.3
A2058: 88.5
COLO 792: 84.5
COLO 800: 104
COLO 829: 84.0
G-361: 99.8
A101D: 94.5
LB2518-MEL: 113

Partner: Nc1ncn([C@H]2C[C@H](O)[C@@H](CO)O2)c(=O)n1 at 100 nM
LOX IMVI: 126
IST-MEL1: 83.6
C32: 90.3
MEL-HO: 77.1
IPC-298: 62.1
A375: 83.9
A2058: 81.7
COLO 792: 68.7
COLO 800: 74.1
COLO 829: 57.1
G-361: 70.2
A101D: 81.0
LB2518-MEL: 92.7

Partner: CS(=O)(=O)c1ccc(C(=O)Nc2ccc(Cl)c(-c3ccccn3)c2)c(Cl)c1 at 1000 nM
LOX IMVI: 90.8
IST-MEL1: 99.6
C32: 83.2
MEL-HO: 79.2
IPC-298: 97.3
A375: 64.7
A2058: 82.1
COLO 792: 87.9
COLO 800: 80.9
COLO 829: 101
G-361: 124
A101D: 87.0
LB2518-MEL: 126

Partner: CCCCCCCCc1ccc(CCC(N)(CO)CO)cc1 at 2000 nM
LOX IMVI: 82.1
IST-MEL1: 98.1
C32: 83.0
MEL-HO: 87.6
IPC-298: 102
A375: 78.7
A2058: 89.6
COLO 792: 99.0
COLO 800: 135
COLO 829: 67.2
G-361: 115
A101D: 101
LB2518-MEL: 107

Data from the primary screen of doi:10.1371/journal.pone.0140310, rounded.